Laboratory results: patent US20080057516A1 (published 2008)
These are yes or no findings as the source states them, for the method shown. Some entries that bind do so weakly or less than the wild type.

T1: Syndecan-3 on rat cells (glioma C6 cell line; E17 hippocampal neurons) (rat), P33671
T1 chain: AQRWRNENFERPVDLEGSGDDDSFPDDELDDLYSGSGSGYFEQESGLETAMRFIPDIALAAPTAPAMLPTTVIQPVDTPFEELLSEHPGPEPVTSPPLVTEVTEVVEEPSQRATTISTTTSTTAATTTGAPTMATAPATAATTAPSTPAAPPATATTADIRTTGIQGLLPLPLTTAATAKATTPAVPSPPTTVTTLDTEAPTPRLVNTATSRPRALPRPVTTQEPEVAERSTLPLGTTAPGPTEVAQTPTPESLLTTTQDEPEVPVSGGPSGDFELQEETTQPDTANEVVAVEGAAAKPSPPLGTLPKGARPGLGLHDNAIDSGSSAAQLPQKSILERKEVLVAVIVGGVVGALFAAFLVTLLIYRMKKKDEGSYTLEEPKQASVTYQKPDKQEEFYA


Assays:
[1] = target: Syndecan-3 ectodomain purified from early postnatal rat brain (rat) (UniProt P33671); experiment: SPR (IAsys), legend of FIG. 2
[2] = target: Syndecan-3 ectodomain purified from early postnatal rat brain (rat) (UniProt P33671); experiment: SPR (IAsys), GFLs immobilised, syndecan-3 ectodomain in solution
[3] = target: Syndecan-3 ectodomain purified from early postnatal rat brain (rat) (UniProt P33671); experiment: conclusion from SPR and cross-linking experiments
[4] = target: T1, Syndecan-3 on rat cells (glioma C6 cell …); experiment: competition with 125I-GDNF on C6 cells; 150-fold molar excess; cross-linking and anti-syndecan-3 immunoprecipitation; conditions: remark: other sources report otherwise
[5] = target: Syndecan-3 ectodomain purified from early postnatal rat brain (rat) (UniProt P33671); experiment: SPR (IAsys), GFLs immobilised, syndecan-3 ectodomain in solution; patent's own conclusion from the same IAsys experiment: weak binding, not quantified
[6] = target: Syndecan-3 ectodomain purified from early postnatal rat brain (rat) (UniProt P33671); experiment: SPR (IAsys optical biosensor): PSPN immobilized on the aminosilane cuvette, syndecan-3 ectodomain (S3) in solution

Binder	binding [1]	binding [2]	binding [3]	binding [4]	binding [5]	binding [6]
Artemin (ARTN) (ligand, UniProt Q5T4W7 108-220, looked up) AGGPGSRARAAGARGCRLRSQLVPVRALGLGHRSDELVRFRFCSGSCRRARSPHDLSLASLLGAGALRPPPGSRPVSQPCCRPTRYEAVSFMDVNSTWRTVDRLSATACGCLG	binds	binds	binds	–	–	–
Glial cell line-derived neurotrophic factor (GDNF) (ligand, UniProt P39905 78-211, looked up, Immobilised on an aminosilane cuvette for SPR, or coated on plastic, glass or filters for the cell assays; also called wtGDNF; unlabeled (Cold) GDNF) SPDKQMAVLPRRERNRQAAAANPENSRGKGRRGQRGKNRGCVLTAIHLNVTDLGLGYETKEELIFRYCSGSCDAAETTYDKILKNLSRNRRLVSDKVGQACCRPIAFDDDLSFLDDNLVYHILRKHSAKRCGCI	binds	binds	binds	–	–	–

Continued, values first:

binding [1]	binding [2]	binding [3]	binding [4]	binding [5]	binding [6]	Binder
–	–	–	binds	–	–	HB-GAM (heparin-binding growth-associated molecule), P63090 33-168 (ligand, here or on the partner: heparan sulfate (HS) chains; attachment residues not stated) GKKEKPEKKVKKSDCGEWQWSVCVPTSGDCGLGTREGTRTGAECKQTMKTQRCKIPCNWKKQFGAECKYQFQAWGECDLNTALKTRTGSLKRALHNADCQKTVTISKPCGKLTKPKPQAESKKKKKEGKKQEKMLD
binds	binds	binds	–	–	–	Neurturin (NRTN) (ligand, UniProt Q99748 96-197, looked up) ARLGARPCGLRELEVRVSELGLGYASDETVLFRYCAGACEAAARVYDLGLRRLRQRRRLRRERVRAQPCCRPTAYEDEVSFLDAHSRYHTVHELSARECACV
–	–	–	–	binds	binds	Persephin (PSPN) (ligand, UniProt O60542 61-156, looked up) ALSGPCQLWSLTLSVAELGLGYASEEKVIFRYCAGSCPRGARTQHGLALARLQGQGRAHGGPCCRPTRYTDVAFLDDRHRWQRLPQLSAAACGCGG
